Measured values from article PMC3098264, “Crystal Structure of the PAC1R Extracellular Domain Unifies a Consensus Fold for Hormone Recognition by Class B G-Protein Coupled Receptors” (PLoS ONE, 2011).
No constants are given. Whether binding was seen depends on the method and setting.

Amino acid sequences for entries named in this document (tags omitted). A change or cut given only in a name is not applied to a line headed by its entry. Chains listed by the source or under a name are the forms on record and can include a tag or linker.
MBP-PAC1R (25–140)-His6 (P41586-3, form named): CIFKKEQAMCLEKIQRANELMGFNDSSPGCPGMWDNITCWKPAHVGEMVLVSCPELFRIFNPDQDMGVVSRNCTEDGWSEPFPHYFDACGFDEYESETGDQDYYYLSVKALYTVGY

Target: MBP-PAC1R (25–140)-His6 (human) (UniProt P41586)
Assay: SEC; S200 column in 10 mM Tris pH 7.5, 50 mM NaCl, 1 mM maltose, 1 mM EDTA; last step of the purification after disulphide shuffling; both purified

binding: no binding
Substance: MBP-PAC1R (25–140)-His6 (from UniProt P41586-3 25-140) (domain or fragment)
